Measurements taken from patent US20230374508.
The exact form of at least one protein or probe is not confirmed. Results from cells or extracts need not show a direct contact. For part of these data: Protein sequences can lack the tags named with them.

Protein sequences, listed by entry. Tags and fused reporters are not part of them. Lines headed by an entry give the natural chain unless they say otherwise; changes in a name come on top.
UniProt Q9UPY3: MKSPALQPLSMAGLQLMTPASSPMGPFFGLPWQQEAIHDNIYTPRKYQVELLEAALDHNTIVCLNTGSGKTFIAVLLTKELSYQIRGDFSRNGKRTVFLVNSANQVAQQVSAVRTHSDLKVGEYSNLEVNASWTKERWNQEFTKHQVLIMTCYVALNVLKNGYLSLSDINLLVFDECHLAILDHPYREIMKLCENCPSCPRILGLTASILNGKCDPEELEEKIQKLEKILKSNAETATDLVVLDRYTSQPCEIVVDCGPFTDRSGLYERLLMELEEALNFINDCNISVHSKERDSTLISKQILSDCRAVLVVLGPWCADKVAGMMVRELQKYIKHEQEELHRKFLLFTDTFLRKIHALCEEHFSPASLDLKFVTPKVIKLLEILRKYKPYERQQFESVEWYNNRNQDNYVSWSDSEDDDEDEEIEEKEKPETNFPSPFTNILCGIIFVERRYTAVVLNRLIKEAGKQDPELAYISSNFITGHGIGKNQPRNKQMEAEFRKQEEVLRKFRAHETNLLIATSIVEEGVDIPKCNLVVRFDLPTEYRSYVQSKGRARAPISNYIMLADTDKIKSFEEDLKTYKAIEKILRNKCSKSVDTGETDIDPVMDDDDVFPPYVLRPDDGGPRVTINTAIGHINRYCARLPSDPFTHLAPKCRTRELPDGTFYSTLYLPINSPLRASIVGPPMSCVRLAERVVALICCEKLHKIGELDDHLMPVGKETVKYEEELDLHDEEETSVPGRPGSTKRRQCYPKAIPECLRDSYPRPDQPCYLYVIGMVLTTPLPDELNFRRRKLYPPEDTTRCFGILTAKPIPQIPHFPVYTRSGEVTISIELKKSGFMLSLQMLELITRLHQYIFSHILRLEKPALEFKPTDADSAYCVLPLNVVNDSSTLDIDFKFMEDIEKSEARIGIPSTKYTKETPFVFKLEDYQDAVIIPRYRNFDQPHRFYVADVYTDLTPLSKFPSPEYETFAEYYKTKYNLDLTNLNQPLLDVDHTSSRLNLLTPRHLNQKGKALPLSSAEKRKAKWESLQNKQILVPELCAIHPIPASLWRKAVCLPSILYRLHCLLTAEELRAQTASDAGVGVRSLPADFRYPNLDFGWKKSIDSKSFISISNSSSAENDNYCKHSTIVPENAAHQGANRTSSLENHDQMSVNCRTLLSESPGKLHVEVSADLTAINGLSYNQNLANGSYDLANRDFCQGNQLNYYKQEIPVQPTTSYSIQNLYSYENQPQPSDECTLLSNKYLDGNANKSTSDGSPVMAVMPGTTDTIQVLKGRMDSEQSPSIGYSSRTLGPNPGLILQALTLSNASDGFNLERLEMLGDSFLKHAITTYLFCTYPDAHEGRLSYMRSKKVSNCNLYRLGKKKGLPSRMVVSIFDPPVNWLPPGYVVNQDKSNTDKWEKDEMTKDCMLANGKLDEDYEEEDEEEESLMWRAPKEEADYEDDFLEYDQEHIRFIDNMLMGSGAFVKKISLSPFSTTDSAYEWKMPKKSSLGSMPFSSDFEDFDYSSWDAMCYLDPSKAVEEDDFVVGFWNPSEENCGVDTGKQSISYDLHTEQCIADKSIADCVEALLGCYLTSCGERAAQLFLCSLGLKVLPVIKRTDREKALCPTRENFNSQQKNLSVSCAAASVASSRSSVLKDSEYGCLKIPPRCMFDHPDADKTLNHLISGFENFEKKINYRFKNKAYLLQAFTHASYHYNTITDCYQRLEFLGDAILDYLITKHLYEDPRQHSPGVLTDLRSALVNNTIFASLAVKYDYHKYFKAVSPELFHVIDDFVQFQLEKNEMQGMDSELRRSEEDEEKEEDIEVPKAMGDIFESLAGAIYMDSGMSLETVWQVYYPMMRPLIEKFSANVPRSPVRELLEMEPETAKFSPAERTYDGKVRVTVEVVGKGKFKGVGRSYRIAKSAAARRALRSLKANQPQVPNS

Legend:
Assay in all cases: pull-down
[1] = target: T1, GFP-RBM3 (Homo sapiens) (UniProt P98179); conditions: protein in cells; protein details: copGFP fusion (pCDH-EF1-copGFP vector)
T1 sequence (looked up, limits assumed): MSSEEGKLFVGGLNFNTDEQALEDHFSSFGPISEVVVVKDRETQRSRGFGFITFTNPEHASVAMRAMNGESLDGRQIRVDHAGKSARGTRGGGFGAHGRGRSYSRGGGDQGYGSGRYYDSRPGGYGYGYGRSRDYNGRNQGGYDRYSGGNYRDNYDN

[2] = target: T2, RBM3 (Homo sapiens) (UniProt P98179); conditions: protein in cells; protein details: endogenous, GSC lysate
T2 sequence (looked up, limits assumed): T1 sequence (looked up, limits assumed)

[3] = target: DICER (Homo sapiens) (UniProt Q9UPY3); conditions: protein in cells; protein details: endogenous, GSC nuclear lysate

Measured: binding result

GUCGUAUUUGUGAUUGAAGCUGAGUACAUUUUGCUGGUGUAUUUUUAGAAACUUUGUCUGCGA [circ2082 (hsa_circ_0002082)]
binds: [1] | [2] | [3]
